Reference: paper PMC7861564

Molecular target: T1, AtSSB (Agrobacterium tumefaciens strain C58) (UniProt Q8UF87)
T1 sequence: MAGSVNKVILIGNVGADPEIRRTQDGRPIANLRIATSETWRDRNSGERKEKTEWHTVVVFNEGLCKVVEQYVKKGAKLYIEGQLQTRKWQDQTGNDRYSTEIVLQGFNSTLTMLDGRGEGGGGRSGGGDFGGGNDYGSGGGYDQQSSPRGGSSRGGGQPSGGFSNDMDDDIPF
Experiment: EMSA
Conditions: 1 mM DTT, 2 mM CaCl2, 100 ug/mL BSA, 50 mM potassium glutamate; recombinant protein; protein details: N-terminal 6xHis (pET15b); single-stranded DNA

“GGAAGCGATAAAACTCTGCAGGTTGGATACGCCAA [OGCB664]”: binds.

For at least one entry, the source does not settle the construct or the ends of the probe. At least one verdict was read from the data and is not stated in words by the source. Where a protein sequence is shown, tags need not be part of it.
